Assay results: publication PMC4359743
These are yes or no findings as the source states them, for the method shown. Binding seen in cells or lysates may run through a third protein. A yes stands for co-enrichment or nearness to the bait. Other partners may have been found. Sequences can lack the tags named with a protein.

By UniProt entry, the sequences of proteins in these tests, tags left out.
UniProt O94986: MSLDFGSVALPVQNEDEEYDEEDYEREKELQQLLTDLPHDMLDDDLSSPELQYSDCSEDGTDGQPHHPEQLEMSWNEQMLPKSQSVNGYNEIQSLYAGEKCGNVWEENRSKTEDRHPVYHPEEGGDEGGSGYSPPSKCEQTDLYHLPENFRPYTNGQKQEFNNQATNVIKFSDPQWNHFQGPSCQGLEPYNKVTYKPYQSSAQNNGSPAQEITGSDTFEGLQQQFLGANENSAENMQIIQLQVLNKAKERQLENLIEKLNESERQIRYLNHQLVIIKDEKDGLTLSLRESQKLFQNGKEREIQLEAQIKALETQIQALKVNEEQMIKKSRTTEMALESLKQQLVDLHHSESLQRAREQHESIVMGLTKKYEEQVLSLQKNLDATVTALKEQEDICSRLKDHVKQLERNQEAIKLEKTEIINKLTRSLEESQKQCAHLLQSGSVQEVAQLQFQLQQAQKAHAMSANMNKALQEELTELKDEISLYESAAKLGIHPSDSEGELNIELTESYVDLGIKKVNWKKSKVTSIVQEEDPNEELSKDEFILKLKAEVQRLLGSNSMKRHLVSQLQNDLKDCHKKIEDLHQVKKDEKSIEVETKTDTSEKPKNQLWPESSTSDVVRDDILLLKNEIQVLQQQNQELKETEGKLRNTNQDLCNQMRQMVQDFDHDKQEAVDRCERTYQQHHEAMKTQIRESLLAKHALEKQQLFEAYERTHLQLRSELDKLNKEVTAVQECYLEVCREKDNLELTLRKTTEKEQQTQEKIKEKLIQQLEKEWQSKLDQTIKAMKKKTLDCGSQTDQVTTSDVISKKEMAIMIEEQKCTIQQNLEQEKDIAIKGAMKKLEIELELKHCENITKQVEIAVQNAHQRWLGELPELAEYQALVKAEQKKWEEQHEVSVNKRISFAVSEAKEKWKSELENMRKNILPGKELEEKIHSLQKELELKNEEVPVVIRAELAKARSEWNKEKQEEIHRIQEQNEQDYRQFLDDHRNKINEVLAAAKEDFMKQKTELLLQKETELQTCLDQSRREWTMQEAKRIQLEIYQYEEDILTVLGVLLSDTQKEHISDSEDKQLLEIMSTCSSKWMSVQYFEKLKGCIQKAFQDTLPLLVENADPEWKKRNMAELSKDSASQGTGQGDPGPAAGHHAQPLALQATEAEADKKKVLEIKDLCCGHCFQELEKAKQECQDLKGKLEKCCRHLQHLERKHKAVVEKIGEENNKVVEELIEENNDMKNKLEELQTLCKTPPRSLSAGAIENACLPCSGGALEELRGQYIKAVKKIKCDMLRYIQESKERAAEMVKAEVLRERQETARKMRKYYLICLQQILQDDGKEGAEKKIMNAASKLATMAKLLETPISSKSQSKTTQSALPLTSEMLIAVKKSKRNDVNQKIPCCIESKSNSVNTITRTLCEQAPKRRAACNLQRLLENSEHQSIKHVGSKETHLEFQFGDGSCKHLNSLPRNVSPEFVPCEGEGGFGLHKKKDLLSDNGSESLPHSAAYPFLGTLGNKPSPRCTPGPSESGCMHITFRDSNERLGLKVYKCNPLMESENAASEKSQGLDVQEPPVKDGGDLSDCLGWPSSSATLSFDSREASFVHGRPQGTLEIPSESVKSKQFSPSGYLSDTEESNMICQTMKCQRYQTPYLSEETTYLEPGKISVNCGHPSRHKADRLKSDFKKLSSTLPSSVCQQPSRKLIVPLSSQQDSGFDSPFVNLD

Target: T1, Zz-Plk4-His (recombinant double-tagged Plk4) (human) (UniProt O00444)
T1 sequence: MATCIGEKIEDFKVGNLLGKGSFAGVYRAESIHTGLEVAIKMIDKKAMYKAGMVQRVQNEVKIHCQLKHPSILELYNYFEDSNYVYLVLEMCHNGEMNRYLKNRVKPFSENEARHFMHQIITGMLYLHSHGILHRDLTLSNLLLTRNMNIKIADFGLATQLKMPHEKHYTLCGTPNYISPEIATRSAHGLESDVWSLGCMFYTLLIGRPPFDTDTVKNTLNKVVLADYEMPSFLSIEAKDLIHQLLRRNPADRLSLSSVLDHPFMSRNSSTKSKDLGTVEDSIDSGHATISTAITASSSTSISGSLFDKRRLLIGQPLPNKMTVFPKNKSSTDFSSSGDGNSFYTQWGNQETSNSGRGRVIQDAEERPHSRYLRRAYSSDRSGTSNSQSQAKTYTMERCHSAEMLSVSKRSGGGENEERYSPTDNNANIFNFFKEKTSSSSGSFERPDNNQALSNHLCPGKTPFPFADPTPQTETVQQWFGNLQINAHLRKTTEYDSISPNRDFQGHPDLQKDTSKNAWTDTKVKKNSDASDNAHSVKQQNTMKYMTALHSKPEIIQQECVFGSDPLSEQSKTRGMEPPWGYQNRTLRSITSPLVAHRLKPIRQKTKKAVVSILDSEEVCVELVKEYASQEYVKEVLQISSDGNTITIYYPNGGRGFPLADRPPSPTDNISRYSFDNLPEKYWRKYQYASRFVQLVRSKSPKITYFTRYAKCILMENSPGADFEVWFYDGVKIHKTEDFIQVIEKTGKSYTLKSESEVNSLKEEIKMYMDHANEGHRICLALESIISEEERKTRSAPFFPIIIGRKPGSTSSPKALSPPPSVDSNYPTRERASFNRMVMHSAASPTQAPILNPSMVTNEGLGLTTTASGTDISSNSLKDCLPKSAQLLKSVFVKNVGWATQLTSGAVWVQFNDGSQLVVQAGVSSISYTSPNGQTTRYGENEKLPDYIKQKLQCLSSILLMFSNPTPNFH
Test: affinity purification with mass spectrometry; 15 µg Zz-Plk4 incubated with 3 mg HeLa lysate (G1/S or mitotically arrested) for 2 h at 4°C, captured on rabbit IgG Sepharose by the Zz-tag; NP40 lysis buffer; eluted partners analysed by nanoLC-ESI-MS/MS; only the target purified

binding: binds
Substance: Cep152, endogenous (from UniProt O94986 1-1710)
